Results are given in words; binding and its absence hold for the method and conditions named. Some binding calls cover weakened binding; strength is not graded here.
Experiments:
[1] = biological target: T1, recombinant human 5T4 protein (human, UniProt Q13641 32-355); experiment: SPR sandwich, (h)Ab1 injected over 5T4 held by captured (m)Ab2
T1 construct: The ELISA protein was bought (Sino biologics and Biorbyt); also called recombinant 5T4 protein; trophoblast glycoprotein (TPBG)
T1 sequence: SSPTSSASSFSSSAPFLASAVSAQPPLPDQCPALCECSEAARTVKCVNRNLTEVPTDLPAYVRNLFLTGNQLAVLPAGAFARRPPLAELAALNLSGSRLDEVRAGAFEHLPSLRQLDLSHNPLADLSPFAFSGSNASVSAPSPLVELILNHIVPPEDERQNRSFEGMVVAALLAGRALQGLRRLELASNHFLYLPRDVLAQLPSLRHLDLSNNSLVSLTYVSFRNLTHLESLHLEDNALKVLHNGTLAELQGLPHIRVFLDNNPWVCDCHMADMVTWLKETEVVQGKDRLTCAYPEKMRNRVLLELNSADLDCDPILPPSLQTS

[2] = biological target: T1, recombinant human 5T4 protein; experiment: SPR (Biacore 8K) sandwich: 5T4 held by captured (m)Ab2, then humanized Ab1 injected
[3] = biological target: T2, 5T4 on the cell surface (human cancer cell lines and 5T4-transfected HEK293 cells) (human) (UniProt Q13641); experiment: flow cytometry on cancer cell lines and 5T4-transfected HEK293 cells
T2 sequence: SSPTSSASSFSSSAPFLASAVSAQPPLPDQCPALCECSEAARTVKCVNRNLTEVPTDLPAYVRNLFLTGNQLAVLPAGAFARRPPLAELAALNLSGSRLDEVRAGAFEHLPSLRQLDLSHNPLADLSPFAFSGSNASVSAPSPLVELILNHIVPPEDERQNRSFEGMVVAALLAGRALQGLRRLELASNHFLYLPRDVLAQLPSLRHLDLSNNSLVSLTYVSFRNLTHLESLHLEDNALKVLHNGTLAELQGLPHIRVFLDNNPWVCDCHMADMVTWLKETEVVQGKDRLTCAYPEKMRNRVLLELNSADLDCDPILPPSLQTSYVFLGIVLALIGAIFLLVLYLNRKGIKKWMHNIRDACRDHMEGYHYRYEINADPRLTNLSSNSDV

binding [1]: binds | binding [2]: binds | binding [3]: binds
B1: humanized antibody No. 1 ((h)Ab1) (antibody, V domains shown)
VH: QVQLVQSGAEVKKPGASVKVSCKASGYSFTDYYMHWVRQAPGQGLEWMGRVSPNNGATNTNQKFKDRVTMTRDTSISTAYMELRSLRSEDTAVYYCARSTMITSYYFDYWGQGTLVTVSS
VL: DIVMTQSPSFLSVSVGDRVTITCKASQSVSTDVAWYQQKPGQAPKLLIYFASDRYTGVPDRFSGSGSGTDFTFTISSLQAEDVAVYYCQQDYSSPPTFGGGTKLEIK
notes: The FcγR assay calls it 'without Fc mutations'; also called humanized Ab1; humanized monospecific antibody Ab1
